Values from PubChem BioAssay AID720710 (VTT Finland, 2013)
Here is a random part of about 1,380 deposited reagents. 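One array per condition without replicates; hydroxyurea arrays received 2 mM for 16 h plus 3 h recovery.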 Reagents against one gene are numbered here. Not all columns of the deposit are shown. No sequences are given here.

Test: 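Knock-downs that leave cyclin E-high cells sensitive to replication stress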 (primary screen)
System: human U-2 OS bone cancer cells, parental and a cyclin E (CCNE1) overexpressing line
Reagent: single siRNA against human genes, 1 µM siRNA in the printed spot mix
Time to read-out: 67 h
Challenge: half the arrays: hydroxyurea 2 mM for 16 h, then 3 h recovery; other arrays untreated
Measured: 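EdU click signal imaged per DAPI-stained nucleus at 67 h; each spot divided by its subgrid median, then z-scored relative to non-targeting control spots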
Direction: EdU z-score, cyclin E line, hydroxyurea: higher = more DNA synthesis than non-targeting controls

For SMARCAD1 (SNF2 related chromatin remodeling ATPase with DExD box 1) #1, the entry reads EdU z-score, cyclin E line, hydroxyurea -1.26.
Silencing of SMARCAD1 (SNF2 related chromatin remodeling ATPase with DExD box 1) #2 gave: EdU z-score, cyclin E line, hydroxyurea 1.13.
Against EME1 (essential meiotic structure-specific endonuclease 1) #1, the entry reads EdU z-score, cyclin E line, hydroxyurea -1.28.
Silencing of EME1 (essential meiotic structure-specific endonuclease 1) #2 gave: EdU z-score, cyclin E line, hydroxyurea 1.73.
With knock-down of TRIAP1 (TP53 regulated inhibitor of apoptosis 1) #1, the screen gave EdU z-score, cyclin E line, hydroxyurea -0.692.
Knock-down of TRIAP1 (TP53 regulated inhibitor of apoptosis 1) #2 gave: EdU z-score, cyclin E line, hydroxyurea -0.293.
With knock-down of POLE (DNA polymerase epsilon, catalytic subunit) #1, the record shows EdU z-score, cyclin E line, hydroxyurea -0.651.
With knock-down of POLE (DNA polymerase epsilon, catalytic subunit) #2, the screen gave EdU z-score, cyclin E line, hydroxyurea 1.16.
ASF1B (anti-silencing function 1B histone chaperone) #1 scored EdU z-score, cyclin E line, hydroxyurea -1.5.
ASF1B (anti-silencing function 1B histone chaperone) #2 gave EdU z-score, cyclin E line, hydroxyurea 1.82.
Knock-down of WDR33 (WD repeat domain 33) #1 came out at: EdU z-score, cyclin E line, hydroxyurea -0.439.
Against WDR33 (WD repeat domain 33) #2 the deposit lists EdU z-score, cyclin E line, hydroxyurea 0.347.

Sorted by “EdU z-score, cyclin E line, hydroxyurea” (lowest first): 2 of the entries above
ASF1B (anti-silencing function 1B histone chaperone) #1 → EdU z-score, cyclin E line, hydroxyurea = -1.5
ASF1B (anti-silencing function 1B histone chaperone) #2 → EdU z-score, cyclin E line, hydroxyurea = 1.82
